Results are given in words; binding and its absence hold for the method and conditions named. In cells and extracts the contact can be indirect. Some entries that bind do so weakly or less than the wild type. Sequences can lack the tags named with a protein.
How the values were obtained:
[1] = molecular target: T1, Ssb3-YFP (Schizosaccharomyces pombe) (UniProt Q92374); assay: co-IP
T1 sequence: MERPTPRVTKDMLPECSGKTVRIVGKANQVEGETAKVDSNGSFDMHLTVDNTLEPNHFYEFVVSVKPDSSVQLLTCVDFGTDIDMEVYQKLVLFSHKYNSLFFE

[2] = molecular target: T2, Rad11-YFP (Schizosaccharomyces pombe) (UniProt Q92372); assay: co-IP
T2 sequence: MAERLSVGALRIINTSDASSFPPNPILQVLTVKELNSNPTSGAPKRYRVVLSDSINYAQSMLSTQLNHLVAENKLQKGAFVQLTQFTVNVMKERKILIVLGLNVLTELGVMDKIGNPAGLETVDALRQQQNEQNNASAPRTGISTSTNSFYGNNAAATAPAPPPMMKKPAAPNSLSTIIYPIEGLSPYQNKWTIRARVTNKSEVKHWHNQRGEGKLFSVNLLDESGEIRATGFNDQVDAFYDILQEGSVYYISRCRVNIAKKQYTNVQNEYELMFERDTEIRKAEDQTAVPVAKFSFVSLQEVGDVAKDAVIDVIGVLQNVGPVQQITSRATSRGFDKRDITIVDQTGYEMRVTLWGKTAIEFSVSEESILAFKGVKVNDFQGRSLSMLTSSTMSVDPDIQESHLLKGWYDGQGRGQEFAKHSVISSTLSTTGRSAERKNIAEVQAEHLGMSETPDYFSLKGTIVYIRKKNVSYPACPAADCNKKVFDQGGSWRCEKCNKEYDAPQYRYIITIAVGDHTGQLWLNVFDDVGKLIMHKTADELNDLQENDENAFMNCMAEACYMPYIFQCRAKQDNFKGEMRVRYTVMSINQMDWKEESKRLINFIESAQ

binding [1]: binds | binding [2]: binds
B1: Pku70-HA (protein, UniProt O94395 1-607)
chain: MENDEQIDETENFAIGKYAILFVIEVSPSMLDPVDEFTPSSLQMALICAYQLAAQRVITNPSDIMGVLLYGTESSTGRFANQMMLLDIDPPDAERIKSLQSFEKDFQFSKEKFKPCSCQVSLSSVLYHCSVIFTTKAENFEKRLFLITDNDHPAWDATERDIILQRAKDLRDLDIQVHPVFLDPPTHSFRINIFYSDFLYIVYGRQDVSNLVNRGQAQLQHMLNMITALQKPKRAHFHLKMDLGNDVRIGVEAFILLKRLESAKTNWVYAKGERFAVAVPQSKQVSFATKKELKKDEIRRSYSYGGSSVVFGSDELNKVRSFEPPTLRIIGFRDFSTLKPWHCLKPAVFLRPKDDEIIGSGAVFSAIHKKLLASNKIGIAWFVSRPNANPCFVAMLATPGSIHIRDDFELPLGIFLVQLPTADDIRSLPPINPNPISMPSNLIETMQRILRGMELRSYQPGKYNNPSLQWHYKVLQALALDEEIPTDFVDNTLPKYKAIQKRVGEYMGDVNNIVAEYRNDISDKNGIKEEEEDQGPIVKKARIEKSGKPIFAEDDRLKQLYIEGVLDKEIKALKVSQLKDILRDRGLRVSGKKADLLDNLTNYVKKL

Source: publication doi:10.1101/162677
